# From PubChem BioAssay AID624297 (National Center for Advancing Translational Sciences (NCATS), 2012)
# Out of some 340,000 compounds screened, about 6,200 (1.8%) were called active. The shares of active, inactive and inconclusive entries below differ from those in the screen. Calls follow the shape of the dose curve; as a rule, active = well fitted activation curve with a large enough effect; inconclusive = small, poorly fitted or top-dose-only effect; inactive = no such curve, though single readings can be large or run the other way. Potencies beside an inconclusive call are fits to weak or partial responses and may not hold up.
# Experiment: A quantitative high throughput screen for small molecules that induce DNA re-replication in SW480 colon adenocarcinoma cells. Also: nearly all actives have a fitted effect of over 55% in size. As to re-replication activation: % of control where 0% means no effect.
# Conditions: Hoechst DNA content imaging, 48 h; re-replication activation: at 46.1 µM (top of the series) unless noted
# Outline: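 Readout is total intensity of Hoechst-stained nuclei, excited at 405 nm and collected at 500-530 nm. Compound treatment lasted 48 hr at 37 C in 5% CO2 before staining.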
# Potency is read from the fitted curve at half-maximal effect.
Compound,re-replication activation,Potency
CN(C)S(=O)(=O)c1ccc(NC(=O)CSc2ncnc3ccccc23)cc1,inactive: -3.65%,
CCN(CC)C(=O)c1c2c(nc3ccccc13)-c1ccccc1CC2,,"inconclusive: 23.1 µM [activator, partial curve, poor fit]"
CCNC(=O)C1CC(=O)N(Cc2ccc(F)cc2)C(=Nc2ccc(OC)cc2)S1 (centres undefined),,"inconclusive: 14.6 µM [activator, single point]"
Cc1c(C(=O)NCc2ccco2)oc2ccccc12,inactive: 3.93%,
CC1=C(C(=O)OC2CCCCC2)C(c2cccs2)n2c(nc3ccccc32)N1 (centres undefined),inactive: -19.6%,
CCOC(=O)C1=C(c2ccccc2)NC(=O)NC1c1cc(Cl)c(O)c(OC)c1 (centres undefined),inactive: -11%,
CC(=O)c1ccc(N2CCN(C(=S)Nc3ccc(Oc4ccccc4)cc3)CC2)cc1,inactive: -4.29%,
Cc1ccc2c(C)c(C(=O)N(C)Cc3nccn3C)oc2c1C,,"inconclusive: 6.51 µM [activator, single point]"
CO/N=C\c1cc(C(=O)c2ccc(Cl)cc2Cl)cn1C,,"inconclusive: 20.6 µM [activator, single point]"
COc1cccc(C(=O)N/N=C(\C)CC(=O)Nc2ccc(N(C)C)cc2)c1,,"inconclusive: 23.1 µM [activator, single point]"
COc1ccc(NC(=O)C(=O)NCC2CCCN2S(=O)(=O)c2ccc(C)cc2)cc1 (centres undefined),,"inconclusive: 0.291 µM [activator, full curve, poor fit]"
CCOc1c2ccc(C(=O)NCCCCc3ccccc3)cc2nn1CC,,"inconclusive: 32.6 µM [activator, single point]"
N#Cc1c(N)nc(Sc2ccc(Cl)cc2)c(C#N)c1-c1ccccc1Cl,,"inconclusive: 29.1 µM [activator, single point]"
CCN(CC(=O)Nc1cc(C)on1)CC(=O)Nc1ccccc1C(F)(F)F,inactive: 28.3%,
Cn1c(=O)c2c(nc(SCCN3CCCCC3)n2C)n(C)c1=O,inactive: -4.53%,
CCn1c(CCNC(=O)c2cccs2)nnc1SCC(=O)c1ccc(OC)cc1,,"inconclusive: 18.4 µM [activator, single point]"
c1ccc2c(c1)ncn2CCCOc1ccc2c(c1)CCC2,inactive: 26.2%,
C=C1c2cccc(C(F)(F)F)c2O[C@H](C(=O)OCC)[C@H]1OC,inactive: -29.3%,
O=C(NC(=S)NC1CCCC1)c1ccccc1,inactive: -12.7%,
CN1CCN(c2ccc(NC(=O)COc3cccc4ccccc34)cc2)CC1,inactive: 0.173%,
Cn1cc(Br)c(C(=O)NC(=S)N2CCN(c3ccccn3)CC2)n1,,"inconclusive: 1.03 µM [activator, partial curve, poor fit]"
CCOC(=O)C1CCCN(C(=O)c2cccc(S(=O)(=O)N(C)c3c(C)n(C)n(-c4ccccc4)c3=O)c2)C1 (centres undefined),,"inconclusive: 29.1 µM [activator, single point]"
COc1cc(SC#N)ccc1N=Cc1c(C)[nH]n(-c2ccc(C)cc2)c1=O,,"inconclusive: 18.4 µM [activator, partial curve, poor fit]"

Compound,re-replication activation,Potency
CCCCn1cnc2c(oc3nc4c(cc32)CCCC4)c1=O,,"inconclusive: 0.0731 µM [activator, partial curve, poor fit]"
NS(=O)(=O)c1ccc(N/N=C2/CCCCC2C2CCCCC2)c([N+](=O)[O-])c1 (centres undefined),,"inconclusive: 29.1 µM [activator, single point]"
COc1ccc(S(=O)(=O)N/N=c2\oc3c(OC)cccc3cc2S(=O)(=O)c2ccc(C)cc2)cc1OC,,"inconclusive: 16.4 µM [activator, single point]"
CCCn1c(=N)n(CC(=O)c2ccc(OCC(=O)OC)cc2)c2ccccc21,,"inconclusive: 23.1 µM [activator, single point]"
O=C(Nc1ccc(NS(=O)(=O)c2ccccc2)c(Cl)c1)c1ccccc1,inactive: 4.37%,
COc1ccc(CNCC(O)COc2cccc3c2OC(C)(C)C3)cc1 (centres undefined),,"inconclusive: 6.51 µM [activator, single point]"
Cc1cc(C)nc(NCc2ccc(Cl)cc2)n1,inactive: -10.1% [at 9.22 µM],
O=C(NCC1CCCO1)c1cccc(NS(=O)(=O)c2ccc(Br)cc2)c1 (centres undefined),inactive: -83.3%,
COc1ccccc1CNC(=O)CSc1nnc2ccc(-c3cccnc3)nn12,,"inconclusive: 0.164 µM [activator, full curve, poor fit]"
Cc1noc(C)c1COc1ccccc1C(=O)NC(C)c1ccc(F)cc1 (centres undefined),,"inconclusive: 0.082 µM [activator, full curve, poor fit]"
COC(=O)[C@]1(Cc2ccccc2)N[C@H](CN(C)C(=O)NC(C)C)[C@@H]2C(=O)N(C)C(=O)[C@@H]21,inactive: 0.838% [at 9.22 µM],
CC(=O)C1(C)C(=O)N(c2ccc(C)cc2)C(=O)N1c1ccc(C)cc1 (centres undefined),inactive: 15.3%,
COc1cccc(/C=N/Nc2nnc3c(n2)[nH]c2ccccc23)c1OC,,"inconclusive: 25.9 µM [activator, single point]"
Cc1cc2nc(Sc3c([N+](=O)[O-])nc(C)n3Cc3ccccc3)[nH]c2cc1C,,"inconclusive: 16.4 µM [activator, single point]"
CCOc1ccc(/C=N/OCC(=O)NC(c2ccccc2)c2ccccc2)cc1,,"inconclusive: 29.1 µM [activator, single point]"
O=c1c2ccccc2n(CC(O)CN2CCOCC2)c2ccccc12 (centres undefined),,"inconclusive: 20.6 µM [activator, single point]"
Cc1cc(O)cc2c(=O)c3ccccc3sc12,,"inconclusive: 29.1 µM [activator, single point]"
C[C@H]1NC(=O)[C@]2(C)[C@@H](c3ccccc3)[C@H]3COc4ccccc4[C@H]3N2C1=O,inactive: 18%,
O=C(NC(=S)NCc1ccncc1)c1ccccc1,inactive: -4.78%,
Cc1ccc(/C=N/Nc2nc3ccccc3[nH]2)s1,,"inconclusive: 29.1 µM [activator, single point]"
O=C(COC(=O)C1CCN(S(=O)(=O)c2cccs2)CC1)c1cc2ccccc2o1,,"inconclusive: 29.1 µM [activator, partial curve, poor fit]"
CC1CCCN(CCCCOc2cccc(Br)c2)C1 (centres undefined),inactive: 0.456%,
CN1C(=O)N(CC(=O)Nc2sccc2C(N)=O)C(=O)C12CCCCC2,,"inconclusive: 29.1 µM [activator, single point]"

# Among those listed so far, ten contain an aryl methoxy group.
Compound,re-replication activation,Potency
CCNC(=O)C1CC(=O)N(Cc2ccc(F)cc2)C(=Nc2ccc(OC)cc2)S1 (centres undefined),,"inconclusive: 14.6 µM [activator, single point]"
CCOC(=O)C1=C(c2ccccc2)NC(=O)NC1c1cc(Cl)c(O)c(OC)c1 (centres undefined),inactive: -11%,
COc1cccc(C(=O)N/N=C(\C)CC(=O)Nc2ccc(N(C)C)cc2)c1,,"inconclusive: 23.1 µM [activator, single point]"
COc1ccc(NC(=O)C(=O)NCC2CCCN2S(=O)(=O)c2ccc(C)cc2)cc1 (centres undefined),,"inconclusive: 0.291 µM [activator, full curve, poor fit]"
CCn1c(CCNC(=O)c2cccs2)nnc1SCC(=O)c1ccc(OC)cc1,,"inconclusive: 18.4 µM [activator, single point]"
COc1cc(SC#N)ccc1N=Cc1c(C)[nH]n(-c2ccc(C)cc2)c1=O,,"inconclusive: 18.4 µM [activator, partial curve, poor fit]"
COc1ccc(S(=O)(=O)N/N=c2\oc3c(OC)cccc3cc2S(=O)(=O)c2ccc(C)cc2)cc1OC,,"inconclusive: 16.4 µM [activator, single point]"
COc1ccc(CNCC(O)COc2cccc3c2OC(C)(C)C3)cc1 (centres undefined),,"inconclusive: 6.51 µM [activator, single point]"
COc1ccccc1CNC(=O)CSc1nnc2ccc(-c3cccnc3)nn12,,"inconclusive: 0.164 µM [activator, full curve, poor fit]"
COc1cccc(/C=N/Nc2nnc3c(n2)[nH]c2ccccc23)c1OC,,"inconclusive: 25.9 µM [activator, single point]"

# Remaining list, next part:

Compound,re-replication activation,Potency
COc1ccc(C2C/C(=N\O)C(C)(C)O2)cc1 (centres undefined),,"inconclusive: 0.0146 µM [activator, full curve, poor fit]"
CC(C(N)=O)N1C(=O)c2cccc3cccc1c23 (centres undefined),,"inconclusive: 4.11 µM [activator, full curve, poor fit]"
O=C(CCc1nc2ccccc2c(=O)[nH]1)N1CCN(C/C=C/c2ccccc2)CC1,inactive: 1.29%,
COc1ccccc1/C=C1\SC(=S)N(CCC(=O)NCCc2ccc(O)cc2)C1=O,,"inconclusive: 11.2 µM [activator, single point]"
COc1ccccc1/C=N/NC(=O)CSc1cc(C)nc2ccccc12,,"inconclusive: 23.1 µM [activator, single point]"
COc1ccc(S(=O)(=O)NCc2ccco2)c2ccccc12,,"inconclusive: 18.4 µM [activator, single point]"
CC(=O)c1cccc(NC(=O)c2cc(-c3ccncc3)nc3ccccc23)c1,,"inconclusive: 23.1 µM [activator, single point]"
CC[C@]12c3[nH]c4cc(CCC(=O)N(C)C)ccc4c3CCN1C(=O)[C@@H](CC(=O)NCc1ccc(OC)c(OC)c1)C[C@@H]2C(=O)N1CCN(C(=O)C2CC2)CC1,,"inconclusive: 1.16 µM [activator, single point]"
CC(C)C[C@H](NC(=O)OC(C)(C)C)c1nnc(SCc2ccccc2)o1,,active: 2.59 µM
CCOC(=O)N(O)c1ccc(C=Cc2ccccc2)cc1,,active: 11.6 µM
O=C1OC(Sc2ccccc2)(c2ccccc2)c2ccccc21 (centres undefined),,"inconclusive: 29.1 µM [activator, partial curve, poor fit]"
CCCCOc1ccc(-c2ncc(Cl)cn2)cc1,inactive: 4.66%,
COc1ccc(C(=O)O)cc1S(=O)(=O)Nc1ccc(N2CCCCC2)cc1,inactive: -8.77%,
CN(C)S(=O)(=O)c1cccc(NC(=O)c2ccc3nccnc3c2)c1,,"inconclusive: 23.1 µM [activator, single point]"
COc1ccc(-n2nc3cc(C)c(N)cc3n2)cc1Cl,,active: 14.6 µM
Cc1nc(NC(=O)CSc2nnc(C3CC3)n2N)c(Cl)cc1Cl,,"inconclusive: 0.146 µM [activator, full curve, poor fit]"
Nc1nonc1-n1nnc(C(=O)N/N=C/c2ccncc2)c1CSc1ccc(Cl)cc1,,"inconclusive: 29.1 µM [activator, single point]"
N=c1c(C(=O)NCc2ccc(F)cc2)cc2c(=O)n3ccccc3nc2n1Cc1cccnc1,,"inconclusive: 2.06 µM [activator, partial curve, poor fit]"
COc1cccc(OC)c1C(=O)NC(=O)Nc1c(F)c(F)c(F)c(F)c1F,,"inconclusive: 29.1 µM [activator, single point]"
COc1ccc(Cc2nnc(SCC(=O)Nc3nc(C)cs3)o2)cc1,inactive: -3.04%,
NC(=O)c1nsc(C(=O)N(CCc2ccccc2)C(C(=O)NC2CCCC2)c2ccco2)c1N (centres undefined),inactive: -0.734%,
Cc1ccc2nc(C)c(C(=O)N/N=C/c3cccs3)n2c1,,"inconclusive: 29.1 µM [activator, single point]"
COc1cccc(N(C(=O)c2ccco2)c2nc(-c3sc(NC(=O)c4ccco4)nc3C)cs2)c1,,"inconclusive: 3.26 µM [activator, full curve]"
